Measured values: PubChem BioAssay AID1688 (National Center for Advancing Translational Sciences (NCATS), 2009)
In all, about 220,000 compounds went through this assay and about 2,400 (1.1%) were called active. The shares of active, inactive and inconclusive entries below differ from those in the screen. The call rests on the fitted dose curve; in most records, active means well fitted inhibition curve with a large enough effect; inconclusive means small, poorly fitted or top-dose-only effect, or effect the other way; inactive means no such curve, though single readings can be large or run the other way. Potencies beside an inconclusive call are fits to weak or partial responses and may not hold up.

experiment: qHTS Multiplex Assay to Identify Dual Action Probes in a Cell Model of Huntington: Aggregate Formation (GFP); details: PC12 HttQ103-GFP aggregates, Acumen cytometry, 40 h; activity change, negative = inhibition: at 46.1 µM (top of the series) unless noted; further: nearly all actives have a fitted effect of over 60% in size
In short: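 Inducible Q103 Huntingtin exon 1–GFP PC12 line, 1500 cells/well in phenol red free DMEM with 5% equine and 5% calf serum. Tebufenozide 100 nM induced expression; compounds titrated; aggregates quantified by cytometry.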
On the % scale 0 is the no-effect control and ±100 the full control effect; potency means the concentration at half of the fitted maximal effect.

SMILES	Potency	activity change, negative = inhibition
Clc1ccc(Nc2nc(NCCN3CCOCC3)nc(N3CCOCC3)n2)cc1	inconclusive: 5.62 µM [activator, single point]	
O=C(CCNS(=O)(=O)c1cccc2nsnc12)NC1CCCc2ccccc21 (stereo unspecified)		inactive: 0.0962%
C=CCOc1ccccc1CNc1ccc2c(c1)OCCO2	active: 14.1 µM	
Cc1ccc2[nH]c3c(N4CCCCCC4)ncnc3c2c1	active: 8.91 µM	
COC(=O)CCC(=O)OC1(C)C(=O)C=C2C=C(C3CC3)N(C(CO)CO)C=C2C1=O (stereo unspecified)		inactive: 7.78% [at 9.22 µM]
CC(C)Cn1c(N)c(C(=O)COC(=O)CN2C(=O)C3CC=CCC3C2=O)c(=O)n(C)c1=O (stereo unspecified)	inconclusive: 12.6 µM [inhibitor, partial curve, poor fit]	
O=C(Oc1cccc(NC(=O)c2cccs2)c1)c1cccc(S(=O)(=O)N2CCCC2)c1	inconclusive: 1.26 µM [inhibitor, single point]	
Cc1ccc(C)n1-c1sc2c(c1C(=O)O)CCCC2	inconclusive: 14.1 µM [activator, single point]	
CCOC(=O)C1CCN(CC(=O)N2C(C)CCCC2C)CC1 (stereo unspecified)		inactive: -0.0572%
CCc1cc2c3c(c1)C(C)CC(C)(C)N3C(=O)C2=O (stereo unspecified)	inconclusive: 11.2 µM [activator, partial curve, poor fit]	
COc1ccc(N(CC(O)Cn2c(C)nc3ccccc32)S(=O)(=O)c2ccccc2)cc1 (stereo unspecified)	inconclusive: 5.62 µM [inhibitor, single point]	
COc1cccc(/C=N\NC(=O)C2C(=O)NCC2c2ccccc2)c1O (stereo unspecified)	active: 11.2 µM	
Cc1ccc(NCCC(=O)c2ccccc2)cc1Cl		inactive: -6.37%
Cc1oc(-c2ccc3c(c2)OCCO3)cc1C(=O)O		inactive: -17.9%
CCCCCn1c(S(=O)(=O)O)nc2ccccc21	inconclusive: 11.2 µM [inhibitor, partial curve]	
COc1cc(SC)ccc1C(=O)N1CCN(c2ccccc2)CC1		inactive: 5.18% [at 9.22 µM]
C[C@@H]1CC=C[C@H]2[C@H]1C(=O)N(Cc1ccccc1)[C@H]2c1ccc(C(F)(F)F)cc1	inconclusive: 3.98 µM [inhibitor, partial curve]	
O=C(NC1CCCCC1)C(c1ccco1)N(Cc1cccs1)C(=O)Cn1nnc2ccccc21 (stereo unspecified)	inconclusive: 5.01 µM [activator, partial curve]	
Cc1cc(C)n(CC(O)COCc2ccccc2)n1 (stereo unspecified)		inactive: -7.05%
Cc1cc(S(=O)(=O)N(Cc2ccccn2)Cc2ccco2)ccc1-n1cnnn1	inconclusive: 0.631 µM [inhibitor, partial curve]	
Cc1cc(NC(=O)c2sccc2C)n(-c2cccc(Cl)c2)n1	inconclusive: 28.2 µM [activator, single point]	
COc1ccc2c(Cl)c(-c3nnc(SCC(=O)c4ccccc4)n3C)sc2c1	inconclusive: 11.2 µM [inhibitor, single point]	
COC(=O)C1=C(C(=O)OC)[C@@H]2N(C)c3ccccc3[C@@]23C[C@@H](C(=O)OC)N(C(C)=O)C3=N1	inconclusive: 1.12 µM [activator, partial curve]	
CCC1=NN(C(=O)c2cccc(Br)c2)C(O)(c2ccc(Br)cc2)C1 (stereo unspecified)	inconclusive: 3.16 µM [inhibitor, single point]	

SMILES	Potency	activity change, negative = inhibition
O=C(Nc1ccc2c(c1)OCCO2)C1CCCN1S(=O)(=O)c1cccc2cccnc12 (stereo unspecified)	inconclusive: 0.501 µM [activator, partial curve, poor fit]	
CCCN(CCC)S(=O)(=O)c1ccc(C(=O)NCc2n[nH]c(=S)n2-c2ccc(Cl)c(Cl)c2)cc1	inconclusive: 2.82 µM [activator, single point]	
O=C1CCC/C1=C\c1ccccc1	inconclusive: 5.62 µM [activator, partial curve]	
O=C1NC2(CCCCC2)C(=O)N1/N=C/c1ccccc1Br		inactive: -28.6%
CCOc1ccccc1-c1nn2c(Cc3ccccc3)nnc2s1		inactive: -1.19% [at 9.22 µM]
Cc1ccc(OCCNC(=O)/C=C/c2ccco2)cc1C		inactive: 21% [at 9.22 µM]
COc1cccc(NC(=O)Nc2ccccc2Br)c1	inconclusive: 31.6 µM [inhibitor, partial curve]	
Cc1cccc(-c2nnc(NC(=O)c3ccc(Cl)cc3)o2)c1	inconclusive: 22.4 µM [inhibitor, single point]	
Cc1ccc(N/C=C2\C(=O)C3(C)CCC2C3(C)C)cc1C (stereo unspecified)	inconclusive: 10 µM [activator, partial curve]	
O=C(NNC(=O)c1ccccc1-n1cccc1)c1ccc(Cl)cc1Cl		inactive: 2.05%
C=CC[n+]1c(-c2ccc(C)cc2)csc1Nc1ccc(NC(C)=O)cc1	inconclusive: 35.5 µM [inhibitor, single point]	
Fc1ccc(Nc2nc(N/N=C/c3ccco3)nc(N3CCCCC3)n2)cc1	inconclusive: 14.1 µM [inhibitor, single point]	
O=C(c1ccccc1)c1c[nH]c(C(=O)NCc2cccnc2)c1	inconclusive: 8.91 µM [inhibitor, partial curve]	
Oc1ccc(Br)cc1/C=N/n1cnc2ccccc21		inactive: -18.4%
COc1ccc(NS(=O)(=O)c2ccc3c(c2)Cc2ccccc2-3)cn1	active: 11.2 µM	
Cc1ccc(S(=O)(=O)N(C)c2ccc(OCC(=O)Nc3cccc(-n4cnnn4)c3C)cc2)cc1		inactive: -18.1% [at 9.22 µM]
O=C(NC1CCCCC1)c1nn2c(C(F)(F)F)cc(-c3ccco3)nc2c1Br		inactive: 3.5%
C1=CC2c3ccccc3NC(c3ccncc3)C2C1 (stereo unspecified)		inactive: 22.7%
CC1=C(C)CC(C(=O)N2CCN(Cc3ccccc3)CC2)C(C(=O)O)C1 (stereo unspecified)		inactive: -7.29%
COc1ccc(N2CCN(C(=O)c3ccc(C(C)(C)C)cc3)CC2)cc1	inconclusive: 11.2 µM [inhibitor, single point]	
O=C(Cc1nn[nH]n1)c1ccccc1O	inconclusive: 5.62 µM [inhibitor, single point]	
CC(NC(=O)C1CCCC1)c1ccc2c(c1)OCCO2 (stereo unspecified)	inconclusive: 1 µM [activator, single point]	
Nc1nc(CCl)nc(Nc2ccccc2)n1	inconclusive: 25.1 µM [inhibitor, single point]	
CN(c1ccc(OCC(=O)OCC(=O)Nc2ccccc2)cc1)S(=O)(=O)c1cccs1	active: 1.26 µM	

Gathered by group: those above with a CF3 group (two)
SMILES	Potency	activity change, negative = inhibition
C[C@@H]1CC=C[C@H]2[C@H]1C(=O)N(Cc1ccccc1)[C@H]2c1ccc(C(F)(F)F)cc1	inconclusive: 3.98 µM [inhibitor, partial curve]	
O=C(NC1CCCCC1)c1nn2c(C(F)(F)F)cc(-c3ccco3)nc2c1Br		inactive: 3.5%

The list continues.

SMILES	Potency	activity change, negative = inhibition
Cc1cc(C)nc(-n2ncc3c2CCCC3=O)n1	inconclusive: 0.794 µM [activator, full curve]	
CCCC(=O)Nc1nnc(CC(=O)N2CCCC2)s1	inconclusive: 15.8 µM [inhibitor, single point]	
CN1CCN(C(=O)CCC(=O)c2ccc(F)cc2)CC1	inconclusive: 3.16 µM [inhibitor, single point]	
C=CCN(CC=C)S(=O)(=O)c1ccc2nsnc2c1	inconclusive: 7.94 µM [inhibitor, partial curve]	
O=S(=O)(c1cccc(NC(=S)N2CCN(c3cccc(Cl)c3)CC2)c1)C(F)F	inconclusive: 7.94 µM [inhibitor, partial curve]	
CC(C)CCCCCCNC(=S)Nc1ccc(S(=O)(=O)N2CCOCC2)cc1	inconclusive: 35.5 µM [inhibitor, single point]	
COc1ccc(Cn2c(-c3ccc(Br)cc3)c[n+]3ccccc23)cc1	inconclusive: 11.2 µM [inhibitor, partial curve]	
CC(=O)/C=C1\N(C)c2ccc(C)cc2C1(C)C	inconclusive: 7.94 µM [inhibitor, partial curve]	
O=C(c1ccccc1)c1ccc(OCC(O)CNC2CCCc3ccccc32)cc1 (stereo unspecified)	inconclusive: 5.62 µM [inhibitor, single point]	
COc1cc(/C=C/c2nc3ccccc3s2)cc(OC)c1O	inconclusive: 3.55 µM [activator, partial curve]	
CCOc1cc(C(=S)N2CCCC2)ccc1OCC(=O)Nc1c(C)cc(C)cc1C		inactive: -1.08%
CC(=O)Nc1ccc(C(=O)OCC(=O)Nc2ccc(N3CCOCC3)cc2)cc1		inactive: -6.48%
Nc1nc(SCc2ccc(Cl)cc2)[nH]c(=O)c1-c1ccccc1	inconclusive: 35.5 µM [inhibitor, single point]	
O=c1[nH]cnc2nc(-c3ccccc3)c(-c3ccccc3)nc12	active: 14.1 µM	
O=C(c1ccco1)N1CCN(S(=O)(=O)c2ccc(Oc3ccccc3)cc2)CC1	inconclusive: 35.5 µM [inhibitor, single point]	
O=C(Nc1cccc(Cl)c1)Nc1cc(S(=O)(=O)N2CCCCC2)ccc1Cl	inconclusive: 6.31 µM [inhibitor, full curve]	
COc1ccc2c(c1)OC(C)(C)C(c1ccccc1)C2c1ccc(OCCN2CCCC2)cc1 (stereo unspecified)	inconclusive: 35.5 µM [inhibitor, single point]	
O=C(C1CCC(=O)N1Cc1ccccc1Cl)N1CCN(c2ccc(F)cc2)CC1 (stereo unspecified)	inconclusive: 1.12 µM [activator, partial curve]	
S=C1SCN(Cc2cccnc2)CN1Cc1ccccc1	inconclusive: 3.16 µM [inhibitor, single point]	
O=C(Nc1ccc(Cl)c(Cl)c1)N1CC=C(c2ccccc2)CC1	inconclusive: 35.5 µM [inhibitor, single point]	
COc1ccc(-c2cc(CNC(=O)CN3CCN(C)CC3)on2)cc1	inconclusive: 1 µM [inhibitor, single point]	
CCC1(C)Cc2c(C#N)c(N)sc(=S)c2CO1 (stereo unspecified)		inactive: -1.44%
CC(=O)Oc1c(Cl)c(N2CCOCC2)c(OC(C)=O)c2ccccc12	inconclusive: 10 µM [activator, partial curve]	
